As usually defined, the viability, T/C is the ratio of treated to control.

This assay relates to OVCAR-5 complex spheroids, viability. Nature of the assay: Anticancer human tumor OVCAR-5 cell line growth inhibition.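 Further: spheroids exposed to agents for seven days; 100% = DMSO vehicle control wells viability.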 The note with it: hits give low values. The text has this:
Multicellular complex tumor spheroid response to LSD1 Inhibitor Iadademstat in combination with a variety of drugs and investigational agents in selected tumor cell lines
The current study was undertaken to assess response to LSD1 inhibitors in combination with standard-of-care drugs and investigational agents in solid tumor complex spheroid models as well as in the K-562 leukemia. Complex spheroids include a stromal component modeled by human endothelial cells (HUVEC) and fibroblasts modeled by human mesenchymal stem cells (MSCs). The concentration ranges selected for each drug and investigational agent were based upon clinically achievable concentrations if the clinical Cmax of the agent was known.
Compounds. The drugs and investigational agents used in this study are listed on Table 1. All of the agents used, including staurosporine (NSC755774) and gemcitabine (NSC613327), were obtained from the Developmental Therapeutics Program, NCI. FDA-approved anticancer drugs are available from the NCI at http://dtp.nci.nih.gov/branches/dscb/oncology_drugset_explanation.html. Drugs and investigational agents were >95% pure by proton nuclear magnetic resonance (NMR) and liquid chromatography/mass spectrometry (LC/MS). […] If the clinical Cmax for an agent had not been determined, the highest concentration tested was 10 microM. […]

Values joined by “and” are separate entries in the source; they are usually repeats but may differ in a detail not shown here. Identical values can stand only once. Further values from the same series stand in other lists.

On to `NC1CCC(NC2CC2c2ccccc2)CC1` (configuration not stated), for which the viability, T/C by setting is: (compound 0.316 µM) 102% [middle of 23 runs]; (compound 10 µM) 92.5% and 79.5%.

For the origin of these results see PubChem BioAssay AID1918956 (Molecular Pharmacology Branch, DTP, NCI, 2023).
